This experiment deals with thrombin-cleaved PAR1/thioredoxin: portion of PAR1 adjacent to the thioredoxin fusion protein (human) (UniProt P25116). The experiment is described as follows: immunoprecipitation with antibody on Protein G, SDS-PAGE.

The chains behind the UniProt entries cited, without tags or fusion partners. Residues count along the entry.
UniProt P25116, residues 42-102: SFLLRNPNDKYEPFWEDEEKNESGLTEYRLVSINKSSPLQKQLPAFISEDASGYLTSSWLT

Results are given in words; binding and its absence hold for the method and conditions named. Some binding calls cover weakened binding; strength is not graded here.

B1: mouse anti-hPAR1 antibody clone 4E7.J14.L16 (antibody, mouse IgG1, V domains shown)
VH: EVQLQQSGPVLVKPGASVKMSCEASGYTFTDYYMNWVKQSHGKSLEWIGVIDPHNGRSRYNQMFKGKATMTVDKSSSTAYMELNNLTSKDSAVYYCASDDGPSHWYFDVWGTGTTVTVSS
VL: DVLMTQTPLSLPVSLGDQASISCRSSQNIVHSNGNTYLEWYLQTPGQSPKLLIYKVSNRFSGVPDRFSGSGSGTDFTLKISRVEAEDLGIYYCFQGSHVPFTFGSGTKLEIK
On to B1, for which the binding entry is recorded as “binds”.
